Results published in article PMC11944487.
Results are given in words; binding and its absence hold for the method and conditions named. Binding seen in cells or lysates may run through a third protein. Binding calls can cover weak binding; strength is not graded here. Where a sequence is shown, tags or fusion partners need not be part of it.

Target: Flag-VP2 (pXJ40-Flag-VP2, full-length MVC VP2) (Minute Virus of Canines (MVC))
Experiment: co-IP; lysates of COS-1 cells co-transfected with an HA-tagged plasmid and pXJ40-Flag-VP2; IP with mouse anti-Flag or rabbit anti-HA antibody or IgG, protein A/G agarose, 4 °C; Western blot; done in both directions

B1: HA-tagged Occludin (pCMV-HA-Occludin) (protein, UniProt Q28269 1-521)
chain: MSSRPFESPPPYRPDEFKPNHYAPSNDVYGGDMHVRPMLSQPAYSFYPEDEILHFYKWTSPPGVIRILSMLVIVMCIAIFGCVASTLAWDRGYGTGLMGGSIGYPYGSGFGSYGTGYGYGFGYGYGYGGYTDPRAAKGFLLAMVAFCFIAALVIFVTSVIRSDISRTRRYYLTVIILSAFLGVMMFIATIVYIMGVNPTAQASGSLYSSQIYAMCNQFYASTATGLYMDQYLYHYCVVDPQEAIAIVLGFMVIVAFALIIFFAVKTRRKMDRYDKSNILWDKEHIYDEQPPNVEEWVKNVSAGTQDMPPPPSDYVERVDSPMAYSSNGKVNDKRLYPESSYKSTPVPEVVQELPATSPADDFRQPRYSSSGHLEPPSKRAPSKGRTGRPKRLEQDHYETDYTTGGESCDELEEDWIREYPPITSDQQRQLYKRNFDTGLQEYKSLQAELDEINKELSRLDKELDDYREESEEYMAAADEYNRLKQVKGSPDYKNKRNYCKQLKSKLSHIKKMVGDYDRQKT
For B1, the binding was “binds”.
